The list shows a part of the results.
compound: C/C(=N\NC(=O)C1=CC(=CC=C1)S(=O)(=O)N2CCOCC2)/C3=C(C=CC(=C3)Cl)O; assay: log2 fold change, soluble protein after heating vs DMSO (PISA); higher = thermal stabilisation; K562 cells, 10 uM, 30 min; active = over 0.2 and 3.5 SD of the protein, either way, in both replicates (recomputed)
Summary of the method: (§1)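 Values are thermal stability changes relative to control samples and are taken from duplicates. They are stated as log2 fold changes. Before quantification by TMTpro 16plex LC-MS/MS with equalised channel sums, K562 cells at 2×10^6 cells/mL were treated with 10 μM compound for 30 min, heated in aliquots for 3 min across 48°C-58°C, pooled, extracted in PBS with 0.5% NP-40 at 4°C, and centrifuged at 21,000xg for 90 min to give the soluble supernatant.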

Sequences of proteins named here, by UniProt entry; tags and fusion partners are left off. A change or cut given only in a name is not applied to a line headed by its entry.
UniProt Q00013: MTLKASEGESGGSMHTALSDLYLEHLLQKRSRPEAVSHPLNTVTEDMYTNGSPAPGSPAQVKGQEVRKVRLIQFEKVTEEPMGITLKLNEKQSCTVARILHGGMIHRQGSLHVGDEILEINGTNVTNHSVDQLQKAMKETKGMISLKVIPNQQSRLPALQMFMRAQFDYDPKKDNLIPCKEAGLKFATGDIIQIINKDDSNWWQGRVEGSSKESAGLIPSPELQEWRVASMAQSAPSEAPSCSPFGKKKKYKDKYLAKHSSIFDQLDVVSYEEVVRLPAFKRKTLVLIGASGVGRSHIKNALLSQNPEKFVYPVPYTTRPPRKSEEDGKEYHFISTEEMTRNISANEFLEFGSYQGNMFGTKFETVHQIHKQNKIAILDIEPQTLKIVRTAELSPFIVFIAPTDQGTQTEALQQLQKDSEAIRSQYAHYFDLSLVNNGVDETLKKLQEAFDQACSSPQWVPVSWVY
UniProt Q5XKP0: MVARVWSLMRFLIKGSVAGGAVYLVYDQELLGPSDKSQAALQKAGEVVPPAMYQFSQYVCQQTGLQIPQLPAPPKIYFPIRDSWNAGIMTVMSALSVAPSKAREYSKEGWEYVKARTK
UniProt O95396: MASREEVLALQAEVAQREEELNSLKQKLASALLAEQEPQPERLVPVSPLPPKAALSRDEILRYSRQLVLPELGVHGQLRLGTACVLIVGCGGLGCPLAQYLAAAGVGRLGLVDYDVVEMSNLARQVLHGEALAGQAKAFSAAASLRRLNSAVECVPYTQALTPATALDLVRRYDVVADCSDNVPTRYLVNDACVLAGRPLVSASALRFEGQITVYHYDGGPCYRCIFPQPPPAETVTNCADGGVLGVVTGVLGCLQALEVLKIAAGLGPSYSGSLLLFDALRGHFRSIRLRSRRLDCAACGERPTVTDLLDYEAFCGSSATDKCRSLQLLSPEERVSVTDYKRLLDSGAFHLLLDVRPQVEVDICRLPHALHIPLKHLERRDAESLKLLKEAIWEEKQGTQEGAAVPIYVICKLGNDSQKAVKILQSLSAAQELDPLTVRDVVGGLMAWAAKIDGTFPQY
UniProt O75352: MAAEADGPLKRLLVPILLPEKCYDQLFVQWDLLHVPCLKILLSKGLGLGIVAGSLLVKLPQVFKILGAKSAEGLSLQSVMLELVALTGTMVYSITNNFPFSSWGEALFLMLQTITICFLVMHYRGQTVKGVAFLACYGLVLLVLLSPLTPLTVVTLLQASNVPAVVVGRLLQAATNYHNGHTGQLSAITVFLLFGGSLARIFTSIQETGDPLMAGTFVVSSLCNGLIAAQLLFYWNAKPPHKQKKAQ
UniProt Q14149: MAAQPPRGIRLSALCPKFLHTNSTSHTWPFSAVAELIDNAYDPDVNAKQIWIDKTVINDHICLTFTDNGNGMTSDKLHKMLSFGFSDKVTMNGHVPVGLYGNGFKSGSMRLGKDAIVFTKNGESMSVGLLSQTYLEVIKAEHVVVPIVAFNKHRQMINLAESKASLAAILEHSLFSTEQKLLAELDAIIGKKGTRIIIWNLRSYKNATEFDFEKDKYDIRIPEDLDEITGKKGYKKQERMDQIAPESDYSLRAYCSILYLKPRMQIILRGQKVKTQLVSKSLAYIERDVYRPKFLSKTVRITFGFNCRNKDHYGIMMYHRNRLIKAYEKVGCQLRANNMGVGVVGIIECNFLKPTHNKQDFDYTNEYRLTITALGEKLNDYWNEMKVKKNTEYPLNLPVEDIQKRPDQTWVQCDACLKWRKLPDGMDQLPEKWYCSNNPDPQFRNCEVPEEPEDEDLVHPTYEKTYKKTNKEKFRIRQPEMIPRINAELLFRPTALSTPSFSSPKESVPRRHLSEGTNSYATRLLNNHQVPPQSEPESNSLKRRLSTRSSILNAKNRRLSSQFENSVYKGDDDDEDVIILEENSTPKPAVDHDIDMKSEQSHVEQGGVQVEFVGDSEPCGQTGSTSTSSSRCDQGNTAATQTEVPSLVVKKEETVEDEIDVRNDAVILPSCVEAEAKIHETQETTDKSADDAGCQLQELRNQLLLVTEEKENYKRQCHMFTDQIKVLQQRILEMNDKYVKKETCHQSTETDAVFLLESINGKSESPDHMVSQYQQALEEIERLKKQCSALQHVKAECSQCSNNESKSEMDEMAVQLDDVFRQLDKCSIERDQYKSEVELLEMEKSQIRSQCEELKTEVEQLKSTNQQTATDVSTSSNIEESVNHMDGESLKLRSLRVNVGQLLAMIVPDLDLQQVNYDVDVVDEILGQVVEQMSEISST
UniProt Q7Z3U7: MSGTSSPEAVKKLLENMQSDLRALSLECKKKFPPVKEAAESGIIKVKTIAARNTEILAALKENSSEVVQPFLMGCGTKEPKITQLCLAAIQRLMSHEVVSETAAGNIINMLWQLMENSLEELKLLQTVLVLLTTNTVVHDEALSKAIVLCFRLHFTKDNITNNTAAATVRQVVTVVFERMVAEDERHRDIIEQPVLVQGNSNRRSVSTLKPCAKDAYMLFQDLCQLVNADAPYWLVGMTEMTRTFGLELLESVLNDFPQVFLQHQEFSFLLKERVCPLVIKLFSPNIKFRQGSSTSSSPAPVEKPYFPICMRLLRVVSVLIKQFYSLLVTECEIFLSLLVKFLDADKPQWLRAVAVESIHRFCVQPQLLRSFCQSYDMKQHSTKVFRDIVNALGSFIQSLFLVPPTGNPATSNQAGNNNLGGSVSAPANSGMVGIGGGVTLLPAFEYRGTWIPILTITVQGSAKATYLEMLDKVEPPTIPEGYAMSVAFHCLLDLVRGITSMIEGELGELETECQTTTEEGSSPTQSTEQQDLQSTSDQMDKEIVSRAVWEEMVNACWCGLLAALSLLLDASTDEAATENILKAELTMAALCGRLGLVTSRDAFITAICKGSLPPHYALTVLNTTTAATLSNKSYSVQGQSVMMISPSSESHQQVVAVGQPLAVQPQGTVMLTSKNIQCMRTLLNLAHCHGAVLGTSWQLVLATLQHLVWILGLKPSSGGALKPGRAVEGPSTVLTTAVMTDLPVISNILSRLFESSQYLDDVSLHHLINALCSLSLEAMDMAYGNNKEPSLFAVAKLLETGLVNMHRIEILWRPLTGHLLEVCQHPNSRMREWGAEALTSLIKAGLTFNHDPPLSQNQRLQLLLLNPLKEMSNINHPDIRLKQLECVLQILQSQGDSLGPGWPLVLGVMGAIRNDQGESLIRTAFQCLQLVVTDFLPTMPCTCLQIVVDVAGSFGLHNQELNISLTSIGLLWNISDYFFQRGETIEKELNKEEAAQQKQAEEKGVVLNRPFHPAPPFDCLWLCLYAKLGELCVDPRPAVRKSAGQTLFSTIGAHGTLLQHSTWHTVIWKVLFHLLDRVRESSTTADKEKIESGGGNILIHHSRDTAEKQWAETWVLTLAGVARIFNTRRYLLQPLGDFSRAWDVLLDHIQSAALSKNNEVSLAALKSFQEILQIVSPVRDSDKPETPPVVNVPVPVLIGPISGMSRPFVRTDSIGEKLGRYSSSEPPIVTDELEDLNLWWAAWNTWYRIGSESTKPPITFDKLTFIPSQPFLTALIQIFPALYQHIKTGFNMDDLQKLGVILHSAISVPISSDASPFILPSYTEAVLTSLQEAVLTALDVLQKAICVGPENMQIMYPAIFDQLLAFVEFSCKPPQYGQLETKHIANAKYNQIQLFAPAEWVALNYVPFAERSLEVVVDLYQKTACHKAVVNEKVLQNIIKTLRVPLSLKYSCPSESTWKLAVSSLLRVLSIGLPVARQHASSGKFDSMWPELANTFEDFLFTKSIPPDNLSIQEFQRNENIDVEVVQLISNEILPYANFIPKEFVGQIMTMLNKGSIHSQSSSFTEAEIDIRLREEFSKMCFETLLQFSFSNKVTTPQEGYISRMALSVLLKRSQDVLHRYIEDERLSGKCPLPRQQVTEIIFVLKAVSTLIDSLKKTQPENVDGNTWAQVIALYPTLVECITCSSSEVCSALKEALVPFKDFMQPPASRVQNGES
UniProt Q9UH92: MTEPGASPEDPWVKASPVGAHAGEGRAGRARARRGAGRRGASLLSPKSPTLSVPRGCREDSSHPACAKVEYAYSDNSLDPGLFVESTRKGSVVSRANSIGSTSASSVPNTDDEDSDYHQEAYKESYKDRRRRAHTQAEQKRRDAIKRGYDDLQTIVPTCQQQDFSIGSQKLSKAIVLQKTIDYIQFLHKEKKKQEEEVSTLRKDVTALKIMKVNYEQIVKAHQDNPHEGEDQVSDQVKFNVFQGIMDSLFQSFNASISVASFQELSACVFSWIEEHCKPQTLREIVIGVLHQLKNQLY
UniProt Q8WV92, whole entry, looked up: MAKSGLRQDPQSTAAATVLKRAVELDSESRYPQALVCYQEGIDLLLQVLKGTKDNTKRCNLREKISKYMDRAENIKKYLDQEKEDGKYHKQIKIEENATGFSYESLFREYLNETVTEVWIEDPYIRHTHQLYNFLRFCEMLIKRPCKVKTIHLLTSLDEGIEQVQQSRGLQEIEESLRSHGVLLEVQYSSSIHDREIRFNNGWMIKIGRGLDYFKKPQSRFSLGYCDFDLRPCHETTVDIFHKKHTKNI
UniProt Q9BPX6: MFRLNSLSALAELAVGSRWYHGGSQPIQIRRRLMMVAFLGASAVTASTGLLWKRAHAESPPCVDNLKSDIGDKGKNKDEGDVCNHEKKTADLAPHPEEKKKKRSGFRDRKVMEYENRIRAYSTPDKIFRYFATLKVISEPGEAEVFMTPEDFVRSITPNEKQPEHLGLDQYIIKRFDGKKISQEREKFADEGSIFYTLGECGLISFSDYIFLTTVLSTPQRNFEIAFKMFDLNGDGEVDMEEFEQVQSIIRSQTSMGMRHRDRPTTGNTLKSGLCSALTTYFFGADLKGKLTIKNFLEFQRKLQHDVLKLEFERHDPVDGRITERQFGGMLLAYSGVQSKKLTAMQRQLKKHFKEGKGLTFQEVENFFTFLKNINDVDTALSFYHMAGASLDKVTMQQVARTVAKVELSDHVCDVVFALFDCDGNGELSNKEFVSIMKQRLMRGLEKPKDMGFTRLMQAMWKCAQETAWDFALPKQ
UniProt Q9BWT6: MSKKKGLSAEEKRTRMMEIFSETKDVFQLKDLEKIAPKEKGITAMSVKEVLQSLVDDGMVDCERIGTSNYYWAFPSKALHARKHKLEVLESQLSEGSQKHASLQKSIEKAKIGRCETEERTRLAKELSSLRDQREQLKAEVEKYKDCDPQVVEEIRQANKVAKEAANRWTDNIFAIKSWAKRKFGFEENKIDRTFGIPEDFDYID
UniProt Q9BVC4, whole entry, looked up: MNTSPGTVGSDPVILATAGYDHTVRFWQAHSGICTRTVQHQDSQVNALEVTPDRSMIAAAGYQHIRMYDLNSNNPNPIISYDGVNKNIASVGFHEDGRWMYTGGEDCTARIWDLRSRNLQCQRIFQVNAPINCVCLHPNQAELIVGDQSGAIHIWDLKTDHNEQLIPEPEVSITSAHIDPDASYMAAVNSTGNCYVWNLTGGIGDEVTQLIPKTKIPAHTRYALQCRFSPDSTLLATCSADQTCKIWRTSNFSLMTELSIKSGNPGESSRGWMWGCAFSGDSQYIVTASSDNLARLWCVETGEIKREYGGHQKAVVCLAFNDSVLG
UniProt Q96T76: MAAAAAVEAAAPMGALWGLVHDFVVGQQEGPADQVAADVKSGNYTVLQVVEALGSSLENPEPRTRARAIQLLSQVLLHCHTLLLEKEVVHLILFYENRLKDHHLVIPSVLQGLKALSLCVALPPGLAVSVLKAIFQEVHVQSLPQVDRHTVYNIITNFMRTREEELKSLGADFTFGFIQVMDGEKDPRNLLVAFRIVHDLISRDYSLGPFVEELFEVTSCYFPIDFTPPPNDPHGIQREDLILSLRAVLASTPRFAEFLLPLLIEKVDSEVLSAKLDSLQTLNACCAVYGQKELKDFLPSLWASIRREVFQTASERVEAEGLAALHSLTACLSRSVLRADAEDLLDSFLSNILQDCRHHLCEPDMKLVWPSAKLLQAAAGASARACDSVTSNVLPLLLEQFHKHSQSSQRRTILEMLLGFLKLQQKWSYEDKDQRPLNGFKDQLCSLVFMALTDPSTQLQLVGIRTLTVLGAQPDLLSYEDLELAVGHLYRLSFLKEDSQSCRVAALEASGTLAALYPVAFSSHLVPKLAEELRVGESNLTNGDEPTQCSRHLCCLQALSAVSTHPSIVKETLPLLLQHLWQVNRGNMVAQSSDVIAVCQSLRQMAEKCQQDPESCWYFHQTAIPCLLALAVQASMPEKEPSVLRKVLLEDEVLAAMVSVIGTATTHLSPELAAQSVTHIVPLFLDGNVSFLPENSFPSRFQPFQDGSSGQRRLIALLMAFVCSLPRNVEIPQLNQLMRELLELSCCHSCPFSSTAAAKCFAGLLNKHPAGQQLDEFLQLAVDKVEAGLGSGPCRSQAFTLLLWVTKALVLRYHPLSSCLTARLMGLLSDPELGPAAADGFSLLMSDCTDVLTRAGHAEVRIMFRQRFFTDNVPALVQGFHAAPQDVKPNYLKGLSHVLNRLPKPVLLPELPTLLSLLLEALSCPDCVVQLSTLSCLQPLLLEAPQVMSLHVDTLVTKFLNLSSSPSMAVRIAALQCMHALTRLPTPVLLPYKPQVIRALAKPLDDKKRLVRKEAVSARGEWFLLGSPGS

Target | log2 fold change
MPP1 (UniProt Q00013) | inactive: 0.098
MICU2 (UniProt Q8IYU8) | inactive: -0.013
MICOS13 (UniProt Q5XKP0) | inactive: 0.018
MIER1 isoform 12 (UniProt Q8N108) | inactive: 0.009
MPHOSPH10 (UniProt O00566) | inactive: -0.005
MOCS3 (UniProt O95396) | inactive: 0.1
MINK1 (UniProt Q8N4C8) | inactive: 0.053
MIF (UniProt P14174) | inactive: 0.128
MPDU1 (UniProt O75352) | inactive: 0.069
MORC3 (UniProt Q14149) | inactive: 0.084
MKRN2 (UniProt Q9H000) | inactive: 0.057
MRPL46 (UniProt Q9H2W6) | inactive: -0.008
MIEN1 (UniProt Q9BRT3) | inactive: 0.048
MRPL47 (UniProt Q9HD33) | inactive: -0.107
MON2 isoform 5 (UniProt Q7Z3U7) | inactive: 0.034
MRPL34 (UniProt Q9BQ48) | inactive: -0.167
MRPL55 isoform 2 (UniProt Q7Z7F7) | inactive: -0.002
MLX (UniProt Q9UH92) | inactive: 0.135
MRPL39 (UniProt Q9NYK5) | inactive: -0.075

Target | log2 fold change
MRPL50 (UniProt Q8N5N7) | inactive: -0.033
MITD1 (UniProt Q8WV92) | inactive: -0.009
MIEF1 (UniProt Q9NQG6) | inactive: 0.03
MICU1 isoform 3 (UniProt Q9BPX6) | inactive: -0.026
MON1B (UniProt Q7L1V2) | inactive: 0.04
MPV17 (UniProt P39210) | inactive: 0.069
MIS12 (UniProt Q9H081) | inactive: 0.083
MND1 (UniProt Q9BWT6) | inactive: 0.034
MIS18A (UniProt Q9NYP9) | inactive: 0.037
MLST8 (UniProt Q9BVC4) | inactive: 0.049
MNAT1 (UniProt P51948) | inactive: 0.04
MORF4L2 (UniProt Q15014) | inactive: -0.056
MIEF1 (UniProt L0R8F8) | inactive: 0.102
MKNK1 (UniProt Q9BUB5) | inactive: 0.09
MOV10 (UniProt Q9HCE1) | inactive: -0.062
MRPL57 (UniProt Q9BQC6) | inactive: -0.152
MMS19 isoform 8 (UniProt Q96T76) | inactive: 0.001
MPRIP isoform 2 (UniProt Q6WCQ1) | inactive: -0.018
MICAL3 (UniProt Q7RTP6) | inactive: -0.049

compound: C1=CC(=C(C=C1Cl)C2=NC3=NC=CN=C3C(=N2)NC4=CC=NC=C4)F; assay: as above
Summary of the method: as §1

Target | log2 fold change
MPP1 (UniProt Q00013) | inactive: 0.027
MICU2 (UniProt Q8IYU8) | inactive: -0.06
MICOS13 (UniProt Q5XKP0) | inactive: 0.053
MIER1 isoform 12 (UniProt Q8N108) | inactive: 0.016
MPHOSPH10 (UniProt O00566) | inactive: -0.412
MOCS3 (UniProt O95396) | inactive: 0.083
MINK1 (UniProt Q8N4C8) | inactive: -0.071
MIF (UniProt P14174) | active: 0.368
MPDU1 (UniProt O75352) | inactive: 0.059
MORC3 (UniProt Q14149) | inactive: 0.171
MKRN2 (UniProt Q9H000) | inactive: -0.16
MRPL46 (UniProt Q9H2W6) | inactive: 0
MIEN1 (UniProt Q9BRT3) | inactive: 0.046
MRPL47 (UniProt Q9HD33) | inactive: -0.098
MON2 isoform 5 (UniProt Q7Z3U7) | inactive: 0.072
MRPL34 (UniProt Q9BQ48) | inactive: -0.116
MRPL55 isoform 2 (UniProt Q7Z7F7) | inactive: -0.287
MLX (UniProt Q9UH92) | inactive: -0.057
MRPL39 (UniProt Q9NYK5) | inactive: -0.131

Target | log2 fold change
MRPL50 (UniProt Q8N5N7) | inactive: 0.048
MITD1 (UniProt Q8WV92) | inactive: 0.148
MIEF1 (UniProt Q9NQG6) | inactive: 0.104
MICU1 isoform 3 (UniProt Q9BPX6) | inactive: -0.022
MON1B (UniProt Q7L1V2) | inactive: -0.021
MPV17 (UniProt P39210) | inactive: 0.128
MIS12 (UniProt Q9H081) | inactive: 0.012
MND1 (UniProt Q9BWT6) | inactive: -0.003
MIS18A (UniProt Q9NYP9) | inactive: -0.041
MLST8 (UniProt Q9BVC4) | inactive: -0.004
MNAT1 (UniProt P51948) | inactive: -0.066
MORF4L2 (UniProt Q15014) | inactive: -0.181
MIEF1 (UniProt L0R8F8) | inactive: 0.021
MKNK1 (UniProt Q9BUB5) | inactive: -0.05
MOV10 (UniProt Q9HCE1) | inactive: -0.242
MRPL57 (UniProt Q9BQC6) | inactive: -0.281
MMS19 isoform 8 (UniProt Q96T76) | inactive: 0.044
MPRIP isoform 2 (UniProt Q6WCQ1) | inactive: 0
MICAL3 (UniProt Q7RTP6) | inactive: 0.008

From the supplement of paper PMC10849652
